For two substances, binding results are on record in publication PMC9700832.

This experiment concerns the target T1, B. thuringiensis serovar israelensis LexA (Bacillus thuringiensis serovar israelensis) (UniProt A0RH75).
T1 sequence: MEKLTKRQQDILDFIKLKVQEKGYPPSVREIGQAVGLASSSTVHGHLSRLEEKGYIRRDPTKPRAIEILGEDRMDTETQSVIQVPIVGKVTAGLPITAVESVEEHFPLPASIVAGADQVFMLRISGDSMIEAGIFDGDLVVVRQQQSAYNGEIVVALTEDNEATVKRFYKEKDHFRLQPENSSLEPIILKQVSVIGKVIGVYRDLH
Nature of the experiment: SPR; each LexA immobilised on a separate CM5 chip (1200 to 1300 RU); analytes 6-1458 nM in 3-fold dilutions, 180 s at 30 uL/min, 25 °C; 20 mM HEPES pH 7.4, 150 mM NaCl, 3 mM EDTA, 0.1 mg/mL BSA, 0.005% P20; steady-state affinity fit; apparent KD, mean of two titrations; both purified. In general terms: Surface plasmon resonance follows binding to a sensor surface in real time, without labels.

No constants are given. Whether binding was seen depends on the method and setting. Binding calls can cover weak binding; strength is not graded here.

As to “gp7 protein of GIL01 phage (bacteriophage GIL01)”, the binding entry is “binds”.

On to “tectiviral gp7 homolog from B. cereus AND1284 phage Sato”, for which the binding entry is recorded as “binds”.
